# Test results: patent publication US9351951B2, “Prevention of proteomic and genomic damage by dicarbonyl substrates of Glo 1” (University of Warnick, priority 2010, dated 2016)
# Some results were stated once for a whole list of compounds, not compound by compound.
# Test system: Glo1
# Test: Activity of Glo1 in HepG2 cells treated with nrf2 activators
# Assay type: cell-based, human
# Conditions: 2 μM inducer, 24 h
smiles,measurement,value
"C=CCN=C=S [AITC, allyl isothiocyanate]",activity of Glo1 increased,2-3 fold
